The record followed here is patent US6562591.

By UniProt entry, the sequences of proteins in these tests, tags left out. Where a name states a change or a piece, a line headed by the entry shows the natural chain unless it says otherwise.
UniProt Q9UKE5: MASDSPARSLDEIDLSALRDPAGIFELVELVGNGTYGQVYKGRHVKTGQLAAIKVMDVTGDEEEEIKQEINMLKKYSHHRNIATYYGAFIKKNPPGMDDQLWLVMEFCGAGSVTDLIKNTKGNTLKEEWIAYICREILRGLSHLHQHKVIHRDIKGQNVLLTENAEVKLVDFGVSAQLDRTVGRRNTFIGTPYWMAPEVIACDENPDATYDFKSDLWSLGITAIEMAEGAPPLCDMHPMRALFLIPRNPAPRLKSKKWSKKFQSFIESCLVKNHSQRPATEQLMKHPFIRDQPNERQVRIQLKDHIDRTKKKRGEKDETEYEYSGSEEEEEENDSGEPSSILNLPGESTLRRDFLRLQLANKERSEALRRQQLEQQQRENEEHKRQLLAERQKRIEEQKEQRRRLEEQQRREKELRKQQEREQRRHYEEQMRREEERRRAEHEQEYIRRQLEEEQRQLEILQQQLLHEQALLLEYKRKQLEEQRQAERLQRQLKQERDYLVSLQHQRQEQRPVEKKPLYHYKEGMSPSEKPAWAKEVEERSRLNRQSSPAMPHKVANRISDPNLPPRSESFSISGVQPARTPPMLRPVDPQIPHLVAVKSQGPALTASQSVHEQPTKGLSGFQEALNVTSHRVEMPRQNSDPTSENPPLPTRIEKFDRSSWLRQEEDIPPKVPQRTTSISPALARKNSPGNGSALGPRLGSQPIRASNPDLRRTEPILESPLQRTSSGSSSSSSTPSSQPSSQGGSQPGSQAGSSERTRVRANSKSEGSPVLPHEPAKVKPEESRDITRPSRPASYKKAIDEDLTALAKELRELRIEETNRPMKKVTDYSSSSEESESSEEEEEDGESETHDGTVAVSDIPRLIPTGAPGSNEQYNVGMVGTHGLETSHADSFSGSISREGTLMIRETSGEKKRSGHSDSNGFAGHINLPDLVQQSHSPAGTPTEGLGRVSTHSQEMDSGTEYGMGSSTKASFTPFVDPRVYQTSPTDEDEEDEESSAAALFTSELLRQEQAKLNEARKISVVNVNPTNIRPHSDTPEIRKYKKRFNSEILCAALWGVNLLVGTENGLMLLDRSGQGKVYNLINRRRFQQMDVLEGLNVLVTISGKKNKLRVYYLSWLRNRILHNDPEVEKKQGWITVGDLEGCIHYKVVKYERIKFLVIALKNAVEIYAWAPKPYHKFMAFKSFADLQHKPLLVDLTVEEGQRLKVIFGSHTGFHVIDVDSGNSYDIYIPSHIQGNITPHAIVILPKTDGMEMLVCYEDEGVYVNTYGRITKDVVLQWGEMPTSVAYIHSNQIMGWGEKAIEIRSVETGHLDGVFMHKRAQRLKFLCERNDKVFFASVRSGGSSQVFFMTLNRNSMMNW

No constants are given. Whether binding was seen depends on the method and setting. In cells and extracts the contact can be indirect. Some entries that bind do so weakly or less than the wild type. For some assays here: Where a sequence is shown, tags or fusion partners need not be part of it.

In test [1] the target is T1, endogenous TRAF2 of Phoenix-A cells (UniProt Q12933).
T1 sequence (looked up): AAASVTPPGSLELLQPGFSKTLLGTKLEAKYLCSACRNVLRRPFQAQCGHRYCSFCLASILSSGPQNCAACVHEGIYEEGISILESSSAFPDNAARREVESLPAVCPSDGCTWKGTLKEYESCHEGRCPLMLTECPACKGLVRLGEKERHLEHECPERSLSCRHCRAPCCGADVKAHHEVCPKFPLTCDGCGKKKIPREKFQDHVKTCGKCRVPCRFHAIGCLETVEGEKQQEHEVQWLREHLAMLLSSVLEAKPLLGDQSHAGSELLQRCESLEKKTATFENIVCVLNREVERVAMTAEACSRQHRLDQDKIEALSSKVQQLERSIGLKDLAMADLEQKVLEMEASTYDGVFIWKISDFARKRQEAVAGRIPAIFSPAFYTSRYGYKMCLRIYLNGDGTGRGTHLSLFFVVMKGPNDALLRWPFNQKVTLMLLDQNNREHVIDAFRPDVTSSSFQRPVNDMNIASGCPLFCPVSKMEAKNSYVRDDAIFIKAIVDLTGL
Description: co-immunoprecipitation: anti-HA mAb IP, anti-Traf2 pAb blot.

Test [2] has as its target T1, endogenous TRAF2 of Phoenix-A cells. Description: co-immunoprecipitation: anti-HA IP, anti-TRAF2 blot, Phoenix-A cell lysates.
In test [3] the target is T2, FLAG-TRAF2, full length human Traf2 with N-terminal FLAG epitope tag (human) (UniProt Q12933).
T2 sequence: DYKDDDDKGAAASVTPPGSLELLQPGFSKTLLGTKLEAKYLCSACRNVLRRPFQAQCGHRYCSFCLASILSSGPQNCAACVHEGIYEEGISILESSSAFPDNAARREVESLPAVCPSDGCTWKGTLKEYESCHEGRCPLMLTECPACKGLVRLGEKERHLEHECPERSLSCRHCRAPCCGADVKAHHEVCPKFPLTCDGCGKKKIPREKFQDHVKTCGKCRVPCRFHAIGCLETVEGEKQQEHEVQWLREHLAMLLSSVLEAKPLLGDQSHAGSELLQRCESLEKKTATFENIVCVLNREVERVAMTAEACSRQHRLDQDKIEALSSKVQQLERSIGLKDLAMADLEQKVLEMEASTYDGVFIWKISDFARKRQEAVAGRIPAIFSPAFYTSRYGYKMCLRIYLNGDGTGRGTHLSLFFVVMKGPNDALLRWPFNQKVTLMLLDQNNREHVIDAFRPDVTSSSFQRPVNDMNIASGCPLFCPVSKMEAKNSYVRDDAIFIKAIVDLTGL
Description: co-immunoprecipitation: anti-HA IP, anti-FLAG blot, Phoenix-A cell lysates.

Test [4] has as its target T2, FLAG-TRAF2, full length human Traf2 with N-terminal FLAG epitope tag (human). Description: retelling of the co-immunoprecipitation mapping.

As to “HA-Tnik(WT), full length human Tnik isoform 1 with N-terminal HA epitope tag (from UniProt Q9UKE5 1-1360) (enzyme)”, the binding entry in test [1], in test [2], in test [3] and in test [4] was “binds” throughout.
As to “HA-Tnik(C1), truncated form of Tnik (from UniProt Q9UKE5 306-1360) (enzyme)”, the binding result in test [3] was “binds”.
